Library screening results

Amino acid sequences for entries named in this document (tags omitted).
UniProt E9BF75, entry or part of it: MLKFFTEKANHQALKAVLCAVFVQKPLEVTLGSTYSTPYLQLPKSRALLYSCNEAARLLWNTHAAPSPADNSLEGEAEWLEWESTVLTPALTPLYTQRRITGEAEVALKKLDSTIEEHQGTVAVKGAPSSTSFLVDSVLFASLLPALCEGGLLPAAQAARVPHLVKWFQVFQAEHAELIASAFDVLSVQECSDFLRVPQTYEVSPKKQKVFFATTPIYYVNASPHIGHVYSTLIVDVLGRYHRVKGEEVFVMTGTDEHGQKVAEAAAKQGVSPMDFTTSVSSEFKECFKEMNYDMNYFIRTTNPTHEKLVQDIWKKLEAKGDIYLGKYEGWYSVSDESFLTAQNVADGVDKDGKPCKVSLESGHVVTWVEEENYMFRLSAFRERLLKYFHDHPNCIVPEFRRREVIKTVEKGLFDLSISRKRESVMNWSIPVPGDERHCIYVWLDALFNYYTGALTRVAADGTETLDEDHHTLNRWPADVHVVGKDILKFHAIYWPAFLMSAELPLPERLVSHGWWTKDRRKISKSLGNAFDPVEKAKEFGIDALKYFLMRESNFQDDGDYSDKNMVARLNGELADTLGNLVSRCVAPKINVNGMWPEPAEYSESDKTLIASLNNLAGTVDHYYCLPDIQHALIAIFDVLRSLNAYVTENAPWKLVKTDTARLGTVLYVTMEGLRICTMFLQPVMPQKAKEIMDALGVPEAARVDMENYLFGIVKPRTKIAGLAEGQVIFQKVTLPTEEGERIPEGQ

From ChEMBL document CHEMBL3988442, “University of Dundee, Small-Polar-MMV Screening Library” (2021).

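Primary screen of methionyl-tRNA synthetase; the read-out is not stated. Target: Methionyl-tRNA synthetase (putative), Leishmania donovani (UniProt E9BF75). The test concentration is not given. Values are per cent inhibition. Size under these conditions: about 68,000 compounds, about 24 of them at 50% or above in at least one test.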

Results are percentages, as filed.
The record does not define 0% and 100%; most values in the screen are far below 50% and negative numbers occur (in some assays of this library far below -100).
Compounds were drawn at random from those tested, without regard to their results.

- Cc1ccc(NC(=O)c2ncc(C(N)=O)cc2Cl)cc1F : 9.581%
- O=S1(=O)C[C@@H]2[C@H](C1)N(Cc1ncc[nH]1)CCN2CC1CC1 : 14.86%
- N#CC1(C(=O)N2CCN(Cc3cscn3)CC2)CCCC1 : -1.408%
- Cc1cc(CN2CC[C@H]3C(=O)N(c4ccsc4)CCO[C@H]3C2)no1 : 20.88%
- c1ccc(N(CCn2cncn2)CC2CC2)cc1 : 10.97%
- CCN(Cc1nc(COC)no1)C[C@]1(O)CCCN2CCCC[C@@H]21 : 3.015%
- Cc1cnc(N2CCn3c(CN4CCOCC4)nnc3C2)nc1 : 11.54%
- Cc1ccccc1CC1(CO)CCCN(c2ncccc2C#N)C1 (stereo not shown) : 15.58%
- Cc1nnc(CN2C[C@H](NC(=O)C3CCOCC3)[C@@H](C(C)C)C2)s1 : 2.687%
- CN(C)C(=O)C1OC2(CCN(c3ncc(F)cn3)CC2)c2ccccc21 (stereo not shown) : 14.7%
- CCNC(=O)[C@@H]1C[C@H](NC(=O)c2cncnc2C)CN1Cc1ccsc1 : 12.54%
- COc1ccc(F)c(-c2ccnc(N)c2)c1 : 16.32%
- Cc1noc([C@@H]2C[C@H]3CN(C(=O)C4CCN(C)CC4)C[C@H]3O2)n1 : 14.92%
- CC(C)NC(=O)N1CCN(CCn2cccn2)c2ncccc2C1 : 11.89%
- CCCc1ccc(C(=O)N2CCc3c(nc(C)nc3N(C)C)C2)cc1 : 25.53%
- COc1ccc(S(=O)(=O)NC(=O)c2cscn2)cc1C : 12.71%
- CC(=O)N1CCN(C(=O)CCCc2nc(C(C)C)no2)CC1 : -1.408%
- NC(=O)C1CCCN(C(=O)c2ccc(-n3ccnc3)cc2)C1 (stereo not shown) : 8.273%
- CC(C)COCCC(=O)Nc1cccnc1-n1cncn1 : 13.19%
- Cc1cc2n(n1)CC(CNC1CCN(Cc3ccccn3)CC1)CN2 (stereo not shown) : 3.559%
- Cc1ccc(-n2cccn2)cc1S(=O)(=O)N1C[C@H](C2CC2)[C@@H](N)C1 : 4.092%
- CN1CCS(=O)(=O)[C@@H]2CCN(C(=O)CC(C)(C)C)CC[C@@H]21 : -2.244%
- c1c[nH]c(-c2cn(CCSc3cnn[nH]3)nn2)n1 : 10.45%
- Cc1cc(C(=O)N2CCCCC2c2nc3cc(F)ccc3[nH]2)nn1C (stereo not shown) : 9.915%
- Cn1c(CN2CCCC(c3noc(C4CC4)n3)C2)cc(=O)n(C)c1=O (stereo not shown) : 18.21%
- CN(C)C(=O)N1C[C@@H]2CC[C@H](C1)N(C(=O)c1cccc(N(C)C)c1)C2 : 18.75%
- Cc1occc(=O)c1OCC(=O)N1CCc2ccccc2C1 : 15.16%
- CCCN1CCCn2nc(CNC(=O)C3CCOC3)cc2C1 (stereo not shown) : 13.59%
- CCN1CCN(CC(C)(O)c2cccc(C(F)(F)F)c2)CC1 (stereo not shown) : 8.711%
- CCN1CCN(Cc2nc(C)no2)CC1 : 2.847%
- Cc1cnn(CC2CCCN2C(=O)c2ccc3c(c2)nnn3C)c1 (stereo not shown) : 7.988%
- Cc1noc(C)c1C(=O)N(C)Cc1nc(-c2ccccn2)no1 : 16.59%
- c1csc(CCN2CCCC2c2noc(C3CC3)n2)c1 (stereo not shown) : 8.505%
- COCc1csc(NC(=O)N2CCC(Cc3cnn(C)c3)C2)n1 (stereo not shown) : 8.168%
- Cc1n[nH]c(C2CN(C(=O)c3coc(Br)c3)CCO2)n1 (stereo not shown) : 11.24%
- Cc1ccnc(OCC(=O)N2CCN(c3ncccn3)CC2)n1 : 10.99%
- CN(C)c1nccc(N(C)C2CCCCC2)n1 : 7.754%
- O=C(c1cscn1)N1C[C@H]2CCCC(OCc3cccnc3)[C@H]2C1 (stereo partly shown) : 12.97%
- COc1ncccc1CN1CCC2(CC1)CC(OCC1CC1)CO2 (stereo not shown) : 12.57%
- Nc1cc(N2CCCC(CO)(Cc3ccccc3F)C2)nc(N)n1 (stereo not shown) : 2.5%
- COCCN(C(=O)c1cc(-c2ccc(C)s2)[nH]n1)C1CC1 : 6.983%

The last 5 entries again:

{"smiles": "CN(C)c1nccc(N(C)C2CCCCC2)n1", "inhibition": 7.754}
{"smiles": "O=C(c1cscn1)N1C[C@H]2CCCC(OCc3cccnc3)[C@H]2C1", "stereo": "stereo partly shown", "inhibition": 12.97}
{"smiles": "COc1ncccc1CN1CCC2(CC1)CC(OCC1CC1)CO2", "stereo": "stereo not shown", "inhibition": 12.57}
{"smiles": "Nc1cc(N2CCCC(CO)(Cc3ccccc3F)C2)nc(N)n1", "stereo": "stereo not shown", "inhibition": 2.5}
{"smiles": "COCCN(C(=O)c1cc(-c2ccc(C)s2)[nH]n1)C1CC1", "inhibition": 6.983}